Results: patent US20210261642A1, “SOLUBILITY OF GLP-1 PEPTIDE” (Novo Nordisk A/S, priority 2017, published 2021)
Further values from the same series stand in other lists.

Assay: Assay (I): Determination of Solubility (96-well plate, pH 3.0-11.0, organic solvent 0-70% w/w, UV absorption at 280 nm)
Format: physicochemical
Settings: Method 1
Description: Assay (I): Determination of Solubility
96-Well Plate Preparation
96-well plates containing target peptide in a solid form were prepared in one of two ways:
Method 1 (evaporation): Addition of 100 μl stock solution of said peptide at a concentration of 4-6 mg/ml to each well of a 96-well half area plate (150 μl well size). Subsequently the solvent was evaporated by applying a vacuum until the solvent was completely removed.
Method 2 (precipitation): Addition of a certain volume of a stock solution of said peptide containing to each well of a 96-well half area plate followed by the addition of a certain volume of concentrated phosphoric acid to obtain a pH of 4.6 followed by addition of a certain volume of ethanol resulting in a final ethanol concentration of 20% v/v. Subsequently the plate was stored at 4° C. for 1 h and then centrifuged at 4,000 rpm for 20 min. Finally the supernatant was removed. The concentration of the stock solution was chosen in a way that the final amount of peptide after supernatant removal was >0.4 mg per well.
In both cases the stock solution was prepared by adding de-ionized water to a certain amount of powder of said peptide followed by a stepwise addition of small amounts of a concentrated sodium hydroxide solution until said peptide was completely in solution.
To determine solubility of a target peptide at different pH and organic solvent concentrations, two different buffer systems were used in independent experiments to cover the whole range from pH 3.0 to pH 11.0. Buffer system 1 covers pH 3.0-7.5 and buffer system 2 covers pH 7.5-11.0. For each buffer system 96 different solvent compositions were premixed in the following way: • 1. A low pH buffer (adjusted to either pH 3.0 or pH 7.5) and a high pH buffer (adjusted to either pH 7.5 or pH 11.0) were mixed at 8 different ratios to obtain values between pH 3.0 and pH 7.5 or pH 7.5 and pH 11.0, respectively. The total volume after mixing was 300 μl. • 2. 12 different amounts of organic solvent were then added to these buffers to obtain organic solvent (e.g. ethanol) concentrations between 0 and 70% w/w. • 3. Water was then added to obtain a total weight of 1.0 g of solvent in each well.
After preparing the 96 different solvent systems, 100 μl of each system was transferred to the 96-well plate containing the solid form of the target peptide (prepared as described in the section “96-well plate preparation”). The plate was then stored at a given temperature (between 5° C. and 70° C.) for a given time on a rotating shaker set to 400 rpm. At regular time intervals the plate was centrifuged (4,000 rpm for 10 min) and a 10 μl sample was taken from each well. The samples were then analysed by UV absorption at 280 nm for peptide quantification. Peptide concentration results are given as UV absorption at 280 nm of the sample subtracted UV absorption at 280 nm of a well comprising 10 μl water.
The buffers used were as follows: • Buffer system 1 (for the pH range from pH 3.0-7.5)
• Buffer system 2 (for the pH ranae from pH 7.5-11.0)
Solubility of liraglutide was determined using Assay (I) described herein. Liraglutide was prepared using Method 1 (evaporation) or Method 2 (precipitation) as described in subsection “96-well plate preparation”.

[1] = MeCN 31.8% w/w, pH 10.0, 70° C.
[2] = MeCN 31.8% w/w, pH 10.5, 70° C.
[3] = MeCN 31.8% w/w, pH 11.0, 70° C.

## CCCCCCCCCCCCCCCC(=O)N[C@@H](CCC(=O)NCCCC[C@H](NC(=O)[C@H](C)NC(=O)[C@H](C)NC(=O)[C@H](CCC(N)=O)NC(=O)CNC(=O)[C@H](CCC(=O)O)NC(=O)[C@H](CC(C)C)NC(=O)[C@H](Cc1ccc(O)cc1)NC(=O)[C@H](CO)NC(=O)[C@H](CO)NC(=O)[C@@H](NC(=O)[C@H](CC(=O)O)NC(=O)[C@H](CO)NC(=O)[C@@H](NC(=O)[C@H](Cc1ccccc1)NC(=O)[C@@H](NC(=O)CNC(=O)[C@H](CCC(=O)O)NC(=O)[C@H](C)NC(=O)[C@@H](N)Cc1cnc[nH]1)[C@@H](C)O)[C@@H](C)O)C(C)C)C(=O)N[C@@H](CCC(=O)O)C(=O)N[C@@H](Cc1ccccc1)C(=O)N[C@H](C(=O)N[C@@H](C)C(=O)N[C@@H](Cc1c[nH]c2ccccc12)C(=O)N[C@@H](CC(C)C)C(=O)N[C@H](C(=O)N[C@@H](CCCNC(=N)N)C(=O)NCC(=O)N[C@@H](CCCNC(=N)N)C(=O)NCC(=O)O)C(C)C)[C@@H](C)CC)C(=O)O [liraglutide, Arg34,Lys26-(N-epsilon-(gamma-L-glutamyl(N-alfa-hexadecanoyl)))-GLP-1(7-37)]
MeCN 31.8% w/w, pH 3.0, 5° C.
  Peptide concentration after 24 h: 0.5 mg/mL
MeCN 31.8% w/w, pH 3.0, 70° C.
  Peptide concentration after 5 min: 0.7 mg/mL
  Peptide concentration after 180 min: 1.3 mg/mL
MeCN 31.8% w/w, pH 3.0, RT
  Peptide concentration after 5 min: 0.4 mg/mL
  Peptide concentration after 180 min: 0.2 mg/mL
  Peptide concentration after 24 h: 0.2 mg/mL
MeCN 31.8% w/w, pH 3.6, 5° C.
  Peptide concentration after 5 min: 0.1 mg/mL
  Peptide concentration after 180 min: 0.3 mg/mL
  Peptide concentration after 24 h: 0.2 mg/mL
MeCN 31.8% w/w, pH 3.6, 70° C.
  Peptide concentration after 5 min: 0.2 mg/mL
  Peptide concentration after 180 min: 0.2 mg/mL
MeCN 31.8% w/w, pH 3.6, RT
  Peptide concentration after 5 min: 0.4 mg/mL
  Peptide concentration after 180 min: 0.2 mg/mL
  Peptide concentration after 24 h: 0.1 mg/mL
MeCN 31.8% w/w, pH 4.3, 5° C.
  Peptide concentration after 5 min: 0.2 mg/mL
  Peptide concentration after 180 min: 0.3 mg/mL
  Peptide concentration after 24 h: 0.2 mg/mL
MeCN 31.8% w/w, pH 4.3, 70° C.
  Peptide concentration after 5 min: 0.2 mg/mL
  Peptide concentration after 180 min: 0.2 mg/mL
MeCN 31.8% w/w, pH 4.3, RT
  Peptide concentration after 5 min: 0.2 mg/mL
  Peptide concentration after 180 min: 0.1 mg/mL
  Peptide concentration after 24 h: 0.1 mg/mL
MeCN 31.8% w/w, pH 4.9, 5° C.
  Peptide concentration after 5 min: 0.1 mg/mL
  Peptide concentration after 180 min: 0.2 mg/mL
  Peptide concentration after 24 h: 0.1 mg/mL
MeCN 31.8% w/w, pH 4.9, 70° C.
  Peptide concentration after 5 min: 0.2 mg/mL
  Peptide concentration after 180 min: 0.1 mg/mL
MeCN 31.8% w/w, pH 4.9, RT
  Peptide concentration after 5 min: 0.1 mg/mL
  Peptide concentration after 180 min: 0.1 mg/mL
  Peptide concentration after 24 h: 0.0 mg/mL
MeCN 31.8% w/w, pH 5.6, 5° C.
  Peptide concentration after 5 min: 0.3 mg/mL
  Peptide concentration after 180 min: 0.3 mg/mL
  Peptide concentration after 24 h: 0.1 mg/mL
MeCN 31.8% w/w, pH 5.6, 70° C.
  Peptide concentration after 5 min: 0.7 mg/mL
  Peptide concentration after 180 min: 0.2 mg/mL
MeCN 31.8% w/w, pH 5.6, RT
  Peptide concentration after 5 min: 0.8 mg/mL
  Peptide concentration after 180 min: 0.3 mg/mL
  Peptide concentration after 24 h: 0.1 mg/mL
MeCN 31.8% w/w, pH 6.2, 5° C.
  Peptide concentration after 5 min: 1.7 mg/mL
  Peptide concentration after 180 min: 1.1 mg/mL
  Peptide concentration after 24 h: 0.2 mg/mL
MeCN 31.8% w/w, pH 6.2, 70° C.
  Peptide concentration after 5 min: 1.4 mg/mL
  Peptide concentration after 180 min: 0.8 mg/mL
MeCN 31.8% w/w, pH 6.2, RT
  Peptide concentration after 5 min: 1.2 mg/mL
  Peptide concentration after 180 min: 0.6 mg/mL
  Peptide concentration after 24 h: 0.1 mg/mL
MeCN 31.8% w/w, pH 6.9, 5° C.
  Peptide concentration after 5 min: 0.9 mg/mL
  Peptide concentration after 180 min: 3.0 mg/mL
  Peptide concentration after 24 h: 2.7 mg/mL
MeCN 31.8% w/w, pH 6.9, 70° C.
  Peptide concentration after 5 min: 3.3 mg/mL
  Peptide concentration after 180 min: 3.5 mg/mL
MeCN 31.8% w/w, pH 6.9, RT
  Peptide concentration after 5 min: 1.0 mg/mL
  Peptide concentration after 180 min: 3.0 mg/mL
  Peptide concentration after 24 h: 1.6 mg/mL
MeCN 31.8% w/w, pH 7.5, 5° C.
  Peptide concentration after 5 min: 1.1 mg/mL
  Peptide concentration after 180 min: 3.4 mg/mL
  Peptide concentration after 24 h: >4.0 mg/mL
MeCN 31.8% w/w, pH 7.5, 70° C.
  Peptide concentration after 5 min: >4.0 mg/mL
  Peptide concentration after 180 min: >4.0 mg/mL
MeCN 31.8% w/w, pH 7.5, RT
  Peptide concentration after 5 min: 1.1 mg/mL
  Peptide concentration after 180 min: >4.0 mg/mL
  Peptide concentration after 24 h: >4.0 mg/mL
MeCN 31.8% w/w, pH 8.0, 70° C.
  Peptide concentration after 5 min: 4.0 mg/mL
  Peptide concentration after 180 min: >4.0 mg/mL
MeCN 31.8% w/w, pH 8.0, RT
  Peptide concentration after 5 min: 0.9 mg/mL
  Peptide concentration after 180 min: >4.0 mg/mL
  Peptide concentration after 24 h: >4.0 mg/mL
MeCN 31.8% w/w, pH 8.5, 70° C.
  Peptide concentration after 5 min: >4.0 mg/mL
  Peptide concentration after 180 min: >4.0 mg/mL
MeCN 31.8% w/w, pH 8.5, RT
  Peptide concentration after 5 min: 1.1 mg/mL
  Peptide concentration after 180 min: >4.0 mg/mL
  Peptide concentration after 24 h: >4.0 mg/mL
MeCN 31.8% w/w, pH 9.0, 70° C.
  Peptide concentration after 5 min: >4.0 mg/mL
  Peptide concentration after 180 min: >4.0 mg/mL
MeCN 31.8% w/w, pH 9.0, RT
  Peptide concentration after 5 min: 1.2 mg/mL
  Peptide concentration after 180 min: 3.8 mg/mL
  Peptide concentration after 24 h: >4.0 mg/mL
MeCN 31.8% w/w, pH 9.5, 70° C.
  Peptide concentration after 5 min: 3.8 mg/mL
  Peptide concentration after 180 min: >4.0 mg/mL
MeCN 31.8% w/w, pH 9.5, RT
  Peptide concentration after 5 min: 1.3 mg/mL
  Peptide concentration after 180 min: >4.0 mg/mL
  Peptide concentration after 24 h: >4.0 mg/mL
[1]
  Peptide concentration after 5 min: >4.0 mg/mL
  Peptide concentration after 180 min: >4.0 mg/mL
MeCN 31.8% w/w, pH 10.0, RT
  Peptide concentration after 5 min: 1.6 mg/mL
  Peptide concentration after 180 min: >4.0 mg/mL
  Peptide concentration after 24 h: >4.0 mg/mL
[2]
  Peptide concentration after 5 min: >4.0 mg/mL
  Peptide concentration after 180 min: >4.0 mg/mL
MeCN 31.8% w/w, pH 10.5, RT
  Peptide concentration after 5 min: 1.4 mg/mL
  Peptide concentration after 180 min: >4.0 mg/mL
  Peptide concentration after 24 h: >4.0 mg/mL
[3]
  Peptide concentration after 5 min: 3.7 mg/mL
  Peptide concentration after 180 min: >4.0 mg/mL
MeCN 31.8% w/w, pH 11.0, RT
  Peptide concentration after 5 min: 1.1 mg/mL
  Peptide concentration after 180 min: >4.0 mg/mL
  Peptide concentration after 24 h: >4.0 mg/mL
MeCN 38.2% w/w, pH 3.0, 5° C.
  Peptide concentration after 5 min: 1.0 mg/mL
  Peptide concentration after 180 min: 1.4 mg/mL
